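Luminescence from an EWS-FLI1 target-promoter (NR0B1) reporter, set against a CMV-promoter reporter, two days after silencing single genes in TC32 Ewing sarcoma cells.
Each siRNA was applied at 20 nM.
A z-score of the log NR0B1-over-CMV signal, less the median of siRNAs with the same seed; more negative means a stronger specific loss of the NR0B1 reporter.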

The strongest results of the screen are mostly left out here.
Sequences are the guide (antisense) strand, without overhang.

strand	gene	seed-corrected z-score
UGGGUGACAAGUUACUGGG	BSN	-0.02104
AUAGGCAUACUGGACUUCC	BNC1	1.198
AUAGGUUCCACUGUAUUGG	ATXN1	0.7418
UGCUGUUGAAGCUUGGGCC	DNASE2	-1.209
UUUCCCUCAAGAAUAUCUU	SLC39A9	0.5122
UGUUUAUGCACAUCUGUGG	NFKB2	-1
UUAGUGAUCUGAUGAUUUG	SPTLC3	0.01134
AAUAAAAUCUCGGUAAACC	PDZD9	0.4119
UUAGAACAAAGCGACGCAC	PLEK2	0.7273
UCCAGUUCCAAUAUCAAGC	METTL10	0.9665
ACAUUUAUCUGGGAUCUCC	FCRL1	0.3299
UGUAGAUAAACAGUAAGUU	CTNS	0.8625
UUUGCAACAACGGAAGCCG	SLC16A1	1.295
UUCCAUAUCAACUAAGUUG	ASUN	0.723
UAUCCCUCAUGAUAGAUUC	LPIN1	0.07344
UUGCAGACAAGAGACUUCC	RNASEL	0.3927
AAAGGUUUGAACACAGACC	SCRN2	0.6287
UUUGCGAAUGUGACACUUG	GALR1	-0.3634
UCUCGAUGCACGAAAUUGU	CSK	0.1471
AUACGUACCAUCCGGCUUG	CDA	1.178
UCAGGUCAUGGGUAGGUGA	MADCAM1	0.07525
UGUUGUAAUAAGAGUAGCC	TMEM176A	-0.1448
ACCUUUAUCCUGUCGAUAU	GNG2	-0.2482
UUUCCUGCAAUCGCCGCAG	TM4SF5	-1.046
ACAGGAUCAUGCUAUUUCC	OR51F2	-0.2061
UUGGGAUUCAGAGUAAACC	MAP2K4	1.161
UCGUAGCUCAUGUCUGGGC	ABHD11	-0.439
UAGUCGAGCAUUGCACACC	RTKN2	-0.8234
UUCGUGGUGAUCUCUUCCC	FAM50A	0.4104
UCAGGAUAAGGUCUCUUGC	UBR7	1.128
UUCGUAUUUACUUAGGCUG	TRPS1	0.5116
UCAUGUCAUAGAACCAGGG	CERS2	-0.1813
UUCAUCAAGUUGAAGAUCU	RGS14	-0.554
UCACUAGUUUGGAAUAUGC	STARD6	1.563
UGUUUAGUGAGACUGGAGC	ZNF552	-0.496
UGAAGUACCACACCAAGGG	CYP20A1	0.8464
AACCACUUGAGUGAAAGCC	CES5AP1	0.4366
UAUUCUUUUAUCAAACAGG	SRSF2	0.08588
UUGCUCACGAUGGUCAGGC	APC2	-1.346
GAUUUUGAGUUCCUCAUCC	PAM16	1.259
AGUUUGUCUAGAUUCGUUC	IQCG	-0.3143
UUACGUGUAAAGGUUUUCC	ZNF445	0.1423
ACUGUAGUCCCUGUAGUGC	BECN2	0.1844
UGACUGAACCUGAACAUAC	SMOC1	0.008124
UAAGCAGUAUACAUGAUCC	TMEM225	0.3561
UUUACUUUGAGAUAUGAUG	TUBA1B	-0.6341
AUGGUUCCCAUCAACACUU	C12orf76	-1.682
UUUGUUAUGAUGCAGAAAC	LOC647481	1.121
UCUCAAUCAUAUGAUAUGC	TMEM168	0.4602
UCCUUAGAGACCAGCAUCC	DTX3	-0.2328
AUUCCGAAAAAUGUUAGUG	ACP6	-0.6308
UCCUCGGCUCUUAAAUGUC	LOC729173	-0.6105
UUCUGCACCACGUUCAUGC	PSAPL1	0.1303
UAUCAGCCUCAGAACAUCU	OASL	-0.6457
UUCCUUGUAGAAGUCCGCC	APOPT1	-1.525
AAUAGAACUGUGCAGACUG	WDR27	0.1804
UCUGCAGCAAUUCAUAGUC	PCDHGC5	0.006196
UUCCUGCACAGUGUAGACC	MAN2B2	-0.2778
UAAGGGACAAACUCGGCCG	MPP2	-0.08705
UUCUUGACAGUCAAAGCAC	ZNF333	-0.5463
AGUUAUUUUAUGUGCAUGG	ZNF625	-0.22
UUUUCGAAAAGGCCGGUCC	SNRNP35	0.9022
UGGUUUUUCAGACAGCAUG	INSC	-0.2682
UACUGUUUACUCAUUGUUU	LENEP	0.08235
UGGAGUUUCAUGUAGAGUC	GATA6	0.7696
UUGGUUAAAAUCACUGCAG	SLC10A7	-0.2315
AUUAGUAAUAGUGCAUCUG	SLC39A12	0.1111
UUGCAUCUAAGACCUCAUC	USP30	-0.5849
UUCUGGUUAUCGUUGAUCC	TNNT2	-1.746
AUAGGAGUGAGAAAGGGCA	OR51F1	-1.795
AAAGUGGACACCGAAGACC	CCR7	0.1922
UCAUUACUAAGAGAUUUCC	TAAR8	-0.7201
UAUGGAUCUUCUGGUGUUG	ZNF22	-0.04504
UUAGGUCCAGUAAAGUUCU	AARD	0.597
AGCCCGUUCAUCUCGUUGG	RBBP8NL	-0.22
UUCCAUUGGACUGAUAGGG	PRDM4	-0.9921
UUCAGGUUAGUAUAGGUUG	TUBA1A	-0.2413
AUCUUGACCAACUCGCUCA	MAP1LC3A	-1.039
UGACUUGAAGCUCAUGGGC	KRTAP12-2	-0.323
UCUCAUCUCGCCACUGUGC	DNM1P31	0.2724
UUGUUCACCAGUGAUUUGU	RHOD	-0.4118
UGUCCUACCACUAACACUC	CLIP4	-0.01352
AGUAUUGUAGCAGUUUUCG	CRELD2	-0.3662
UUUACUGCUGGAUAGGUCC	GTF2H1	-0.2207
AAGGUUGACCGCAUUGUCG	CD28	0.093
ACAGCUAUAAUCUUGUCCU	SLC38A7	-0.4903
UUUAUGAAGACCCUUAACA	LYPLAL1-AS1	-0.7359
UGUACUCCUGAAUCGACUC	FAM89A	0.8145

For reference, 8 entries once more:

- UUCCUGCACAGUGUAGACC against MAN2B2 : seed-corrected z-score -0.2778
- UCUCGAUGCACGAAAUUGU against CSK : seed-corrected z-score 0.1471
- UUAGUGAUCUGAUGAUUUG against SPTLC3 : seed-corrected z-score 0.01134
- UCCUUAGAGACCAGCAUCC against DTX3 : seed-corrected z-score -0.2328
- UUCAUCAAGUUGAAGAUCU against RGS14 : seed-corrected z-score -0.554
- AGUUUGUCUAGAUUCGUUC against IQCG : seed-corrected z-score -0.3143
- UAAGCAGUAUACAUGAUCC against TMEM225 : seed-corrected z-score 0.3561
- AAUAGAACUGUGCAGACUG against WDR27 : seed-corrected z-score 0.1804

Source: PubChem BioAssay AID1159506 (NCATS, 2015).